# Results published in article PMC9622807.
# B1: CCT2 (protein, UniProt P78371 1-535)
# chain: MASLSLAPVNIFKAGADEERAETARLTSFIGAIAIGDLVKSTLGPKGMDKILLSSGRDASLMVTNDGATILKNIGVDNPAAKVLVDMSRVQDDEVGDGTTSVTVLAAELLREAESLIAKKIHPQTIIAGWREATKAAREALLSSAVDHGSDEVKFRQDLMNIAGTTLSSKLLTHHKDHFTKLAVEAVLRLKGSGNLEAIHIIKKLGGSLADSYLDEGFLLDKKIGVNQPKRIENAKILIANTGMDTDKIKIFGSRVRVDSTAKVAEIEHAEKEKMKEKVERILKHGINCFINRQLIYNYPEQLFGAAGVMAIEHADFAGVERLALVTGGEIASTFDHPELVKLGSCKLIEEVMIGEDKLIHFSGVALGEACTIVLRGATQQILDEAERSLHDALCVLAQTVKDSRTVYGGGCSEMLMAHAVTQLANRTPGKEAVAMESYAKALRMLPTIIADNAGYDSADLVAQLRAAHSEGNTTAGLDMREGTIGDMAILGITESFQVKRQVLLSAAEAAEVILRVDNIIKAAPRKRVPDHHPC
# Biological target: circBNC2-translated protein (ctBNC2) (human (endogenous in HK2))
# Test: affinity purification with mass spectrometry; HK2 lysates immunoprecipitated with anti-ctBNC2 or anti-BNC2, normal IgG as negative control; silver-stained gel bands (25–35 and 55–70 kDa) analysed by LC-MS; three independent experiments
binder,measurement,value
B1,binding,binds

# No constants are given. Whether binding was seen depends on the method and setting. Binding seen in cells or lysates may run through a third protein. A yes stands for co-enrichment or nearness to the bait. Other partners may have been found.
